Experimental data from the supplement of paper PMC10849652.
Some of the results follow.

Sequences of proteins named here, by UniProt entry; tags and fusion partners are left off. A change or cut given only in a name is not applied to a line headed by its entry.
UniProt Q59H18: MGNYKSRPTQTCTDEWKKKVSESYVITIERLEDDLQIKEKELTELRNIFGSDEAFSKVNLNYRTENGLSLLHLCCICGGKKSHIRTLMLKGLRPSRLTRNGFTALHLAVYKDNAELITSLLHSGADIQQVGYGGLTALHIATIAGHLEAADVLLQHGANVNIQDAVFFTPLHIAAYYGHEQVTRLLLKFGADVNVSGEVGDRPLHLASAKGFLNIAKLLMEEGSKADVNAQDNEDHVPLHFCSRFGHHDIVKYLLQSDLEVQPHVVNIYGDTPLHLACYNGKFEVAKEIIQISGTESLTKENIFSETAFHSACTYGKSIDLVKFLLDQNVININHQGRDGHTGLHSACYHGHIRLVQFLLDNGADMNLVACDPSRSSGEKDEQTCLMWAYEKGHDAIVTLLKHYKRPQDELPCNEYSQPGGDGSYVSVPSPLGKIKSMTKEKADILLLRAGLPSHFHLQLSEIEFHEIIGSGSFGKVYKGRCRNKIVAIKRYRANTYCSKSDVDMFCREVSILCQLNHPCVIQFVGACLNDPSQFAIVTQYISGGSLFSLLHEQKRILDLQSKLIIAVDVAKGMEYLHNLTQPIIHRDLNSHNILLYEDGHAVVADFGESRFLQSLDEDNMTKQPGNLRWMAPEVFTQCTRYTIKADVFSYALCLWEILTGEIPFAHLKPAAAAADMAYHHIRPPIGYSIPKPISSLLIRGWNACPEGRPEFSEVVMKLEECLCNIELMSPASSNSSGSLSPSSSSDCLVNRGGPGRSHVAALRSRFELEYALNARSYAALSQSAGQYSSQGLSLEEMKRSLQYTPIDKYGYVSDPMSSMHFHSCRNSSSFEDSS
UniProt Q96A57: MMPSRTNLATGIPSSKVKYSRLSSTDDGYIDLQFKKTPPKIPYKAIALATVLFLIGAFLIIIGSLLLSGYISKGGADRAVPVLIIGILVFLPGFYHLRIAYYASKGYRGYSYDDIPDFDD
UniProt Q9H1E5: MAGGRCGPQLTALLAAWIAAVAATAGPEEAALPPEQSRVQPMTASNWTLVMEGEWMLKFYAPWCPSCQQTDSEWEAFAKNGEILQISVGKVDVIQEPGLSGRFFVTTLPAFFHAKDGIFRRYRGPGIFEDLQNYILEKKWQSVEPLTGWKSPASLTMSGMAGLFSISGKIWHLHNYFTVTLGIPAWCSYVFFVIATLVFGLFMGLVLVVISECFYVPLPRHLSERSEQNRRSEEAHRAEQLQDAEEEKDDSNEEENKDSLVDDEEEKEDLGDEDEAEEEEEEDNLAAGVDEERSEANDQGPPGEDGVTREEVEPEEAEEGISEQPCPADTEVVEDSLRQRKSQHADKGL
UniProt Q8NFZ5: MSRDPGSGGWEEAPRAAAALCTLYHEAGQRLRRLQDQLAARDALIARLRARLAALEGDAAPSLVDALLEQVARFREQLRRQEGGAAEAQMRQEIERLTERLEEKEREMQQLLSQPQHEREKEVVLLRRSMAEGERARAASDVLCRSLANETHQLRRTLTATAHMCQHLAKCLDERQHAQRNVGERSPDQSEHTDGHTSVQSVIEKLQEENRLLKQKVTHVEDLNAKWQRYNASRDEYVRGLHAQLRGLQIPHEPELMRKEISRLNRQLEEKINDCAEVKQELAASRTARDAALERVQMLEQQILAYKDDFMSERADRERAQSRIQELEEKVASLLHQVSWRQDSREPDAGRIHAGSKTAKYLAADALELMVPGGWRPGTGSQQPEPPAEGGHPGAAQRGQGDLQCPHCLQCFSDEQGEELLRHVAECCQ
UniProt Q9NYL9: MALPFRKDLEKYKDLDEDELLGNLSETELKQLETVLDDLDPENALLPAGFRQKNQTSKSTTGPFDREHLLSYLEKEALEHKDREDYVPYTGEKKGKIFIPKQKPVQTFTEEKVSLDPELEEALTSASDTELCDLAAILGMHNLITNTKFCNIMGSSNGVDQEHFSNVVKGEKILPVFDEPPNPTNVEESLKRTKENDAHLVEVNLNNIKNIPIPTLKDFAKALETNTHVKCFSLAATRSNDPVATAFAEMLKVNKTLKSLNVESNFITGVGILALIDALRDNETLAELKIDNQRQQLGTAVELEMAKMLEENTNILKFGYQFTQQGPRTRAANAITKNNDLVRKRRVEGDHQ
UniProt Q8NCS4: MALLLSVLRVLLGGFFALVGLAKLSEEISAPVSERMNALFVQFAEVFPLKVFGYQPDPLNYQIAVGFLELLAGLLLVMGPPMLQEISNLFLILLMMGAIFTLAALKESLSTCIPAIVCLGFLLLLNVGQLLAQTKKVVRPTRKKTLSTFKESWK
UniProt Q12767: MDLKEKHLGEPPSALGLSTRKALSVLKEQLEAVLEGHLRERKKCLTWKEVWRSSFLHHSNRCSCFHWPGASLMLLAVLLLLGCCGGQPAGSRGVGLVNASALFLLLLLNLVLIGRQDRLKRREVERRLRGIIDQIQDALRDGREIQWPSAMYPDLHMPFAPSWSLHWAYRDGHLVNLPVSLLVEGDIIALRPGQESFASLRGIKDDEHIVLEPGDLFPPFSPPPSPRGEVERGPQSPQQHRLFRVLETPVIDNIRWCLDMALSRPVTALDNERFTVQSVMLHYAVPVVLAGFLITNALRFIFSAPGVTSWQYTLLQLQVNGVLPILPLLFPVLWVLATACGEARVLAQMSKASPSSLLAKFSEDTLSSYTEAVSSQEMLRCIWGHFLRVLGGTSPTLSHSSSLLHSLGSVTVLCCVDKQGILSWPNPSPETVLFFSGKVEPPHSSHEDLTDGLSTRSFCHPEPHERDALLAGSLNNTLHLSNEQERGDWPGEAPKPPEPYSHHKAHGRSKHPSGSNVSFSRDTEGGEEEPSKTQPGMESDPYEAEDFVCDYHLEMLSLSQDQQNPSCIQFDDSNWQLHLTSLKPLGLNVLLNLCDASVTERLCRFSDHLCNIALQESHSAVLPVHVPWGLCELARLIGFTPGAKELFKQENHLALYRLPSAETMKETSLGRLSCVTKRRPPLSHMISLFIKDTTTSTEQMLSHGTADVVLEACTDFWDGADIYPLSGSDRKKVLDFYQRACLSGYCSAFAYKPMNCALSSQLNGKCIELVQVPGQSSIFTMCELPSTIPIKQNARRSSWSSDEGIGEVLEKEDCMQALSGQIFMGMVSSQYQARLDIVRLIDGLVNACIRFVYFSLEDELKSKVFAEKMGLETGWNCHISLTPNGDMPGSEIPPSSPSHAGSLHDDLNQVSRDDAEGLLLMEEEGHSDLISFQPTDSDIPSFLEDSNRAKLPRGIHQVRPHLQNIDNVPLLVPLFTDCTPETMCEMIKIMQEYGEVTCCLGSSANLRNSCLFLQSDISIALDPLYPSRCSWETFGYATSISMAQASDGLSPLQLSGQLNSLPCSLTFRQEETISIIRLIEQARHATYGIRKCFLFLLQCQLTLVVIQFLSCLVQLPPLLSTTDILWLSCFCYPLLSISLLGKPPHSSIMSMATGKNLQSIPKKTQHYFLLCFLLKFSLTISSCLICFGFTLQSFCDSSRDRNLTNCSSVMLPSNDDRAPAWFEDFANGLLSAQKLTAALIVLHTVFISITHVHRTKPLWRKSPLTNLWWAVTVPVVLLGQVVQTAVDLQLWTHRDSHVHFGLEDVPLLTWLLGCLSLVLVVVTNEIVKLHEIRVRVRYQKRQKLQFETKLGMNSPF
UniProt Q9P0T7: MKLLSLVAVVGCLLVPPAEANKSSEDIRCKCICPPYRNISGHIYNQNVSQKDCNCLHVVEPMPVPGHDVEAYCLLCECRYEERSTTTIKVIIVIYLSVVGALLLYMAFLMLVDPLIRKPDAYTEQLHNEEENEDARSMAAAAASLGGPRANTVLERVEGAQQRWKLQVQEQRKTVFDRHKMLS
UniProt O60784, whole entry, looked up: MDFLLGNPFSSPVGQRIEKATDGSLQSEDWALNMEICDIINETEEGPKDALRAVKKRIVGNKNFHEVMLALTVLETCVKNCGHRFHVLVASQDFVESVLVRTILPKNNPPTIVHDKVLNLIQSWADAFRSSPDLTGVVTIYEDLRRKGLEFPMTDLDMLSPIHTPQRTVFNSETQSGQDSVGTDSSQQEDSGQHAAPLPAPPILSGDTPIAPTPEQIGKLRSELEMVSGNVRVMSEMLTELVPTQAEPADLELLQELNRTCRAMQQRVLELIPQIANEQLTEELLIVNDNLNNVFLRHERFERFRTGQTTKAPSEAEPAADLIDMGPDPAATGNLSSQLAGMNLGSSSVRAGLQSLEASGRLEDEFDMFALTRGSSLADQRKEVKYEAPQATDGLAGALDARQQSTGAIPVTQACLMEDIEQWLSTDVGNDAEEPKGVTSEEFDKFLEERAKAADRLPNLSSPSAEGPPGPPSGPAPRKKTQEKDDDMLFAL

How the values were obtained:
Assay in all cases: log2 fold change, soluble protein after heating vs DMSO (PISA); higher = thermal stabilisation; K562 lysate, 10 uM; active = over 0.2 and 3.5 SD of the protein, either way, in both replicates (recomputed)
vemurafenib = compound: CCCS(=O)(=O)Nc1ccc(F)c(C(=O)c2c[nH]c3ncc(-c4ccc(Cl)cc4)cc23)c1F [vemurafenib]
In short: (§1)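 Following dounce homogenisation of K562 pellets in PBS pH 7.4 with 1 mM MgCl2, crude extract at 1 mg/mL protein was incubated for 30 min with 10 μM compound. Aliquots were then heated for 3 min over 48°C-58°C and pooled, NP-40 was added to 0.5% at 4°C, and soluble protein was recovered as the supernatant at 21,000xg for 90 min. Channel-sum-equalised TMTpro 16plex LC-MS/MS quantified this protein. Each value, from duplicates, is a log-two fold change in thermal stability relative to solvent controls.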

[1] = compound: CCCS(=O)(=O)Nc1ccc(F)c(C(=O)c2c[nH]c3ncc(Cl)cc23)c1F
In short: as §1

barasertib = compound: CCN(CCCOc1ccc2c(Nc3cc(CC(=O)Nc4cccc(F)c4)[nH]n3)ncnc2c1)CCOP(=O)(O)O [barasertib]
In short: as §1

[2] = compound: CC[C@@H]1C(=O)N(C)c2cnc(Nc3ccc(C(=O)NC4CCN(C)CC4)cc3OC)nc2N1C1CCCC1
In short: as §1

volasertib = compound: CC[C@@H]1C(=O)N(C)c2cnc(Nc3ccc(C(=O)N[C@H]4CC[C@H](N5CCN(CC6CC6)CC5)CC4)cc3OC)nc2N1C(C)C [volasertib]
In short: as §1

[3] = compound: CCn1c(C(=O)N(C2CC2)C2CC2)cc2c3c(ncn3C)c(Nc3cc(C)n(C)n3)nc21
In short: as §1

[4] = compound: CCn1cc(-c2ccnc3[nH]c(-c4cccc(CN(C)C)c4)cc23)c(-c2ccc(NC(=O)N(C)C)cc2)n1
In short: as §1

[5] = compound: CN1CCC(CNc2ccc3ncc(-c4cccc(OC(F)(F)F)c4)n3n2)CC1
In short: as §1

saracatinib = compound: CN1CCN(CCOc2cc(OC3CCOCC3)c3c(Nc4c(Cl)ccc5c4OCO5)ncnc3c2)CC1 [saracatinib]
In short: as §1

sotrastaurin = compound: CN1CCN(c2nc(C3=C(c4c[nH]c5ccccc45)C(=O)NC3=O)c3ccccc3n2)CC1 [sotrastaurin]
In short: as §1

alvocidib = compound: CN1CC[C@H](c2c(O)cc(O)c3c(=O)cc(-c4ccccc4Cl)oc23)[C@H](O)C1 [alvocidib]
In short: as §1

Tubastatin A = compound: CN1CCc2c(c3ccccc3n2Cc2ccc(C(=O)NO)cc2)C1 [Tubastatin A]
In short: as §1

[6] = compound: CNC(=O)C1=CC=CC=C1NC2=NC(=NC=C2Cl)NC3=C(C=C(C=C3)N4CCOCC4)OC
In short: as §1

defactinib = compound: CNC(=O)c1ccc(Nc2ncc(C(F)(F)F)c(NCc3nccnc3N(C)S(C)(=O)=O)n2)cc1 [defactinib]
In short: as §1

[7] = compound: CNc1nc(-c2ccc3c(N)n[nH]c3c2)cc(N2C[C@@H](C(=O)NC3CCCCC3)CC[C@H]2C)n1
In short: as §1

encorafenib = compound: COC(=O)N[C@@H](C)CNc1nccc(-c2cn(C(C)C)nc2-c2cc(Cl)cc(NS(C)(=O)=O)c2F)n1 [encorafenib]
In short: as §1

[8] = compound: COC(=O)[C@H](CCSC)NC(=O)C1=C(C=C(C=C1)NC[C@H](CS)N)C2=CC=CC=C2
In short: as §1

alisertib = compound: COc1cc(Nc2ncc3c(n2)-c2ccc(Cl)cc2C(c2c(F)cccc2OC)=NC3)ccc1C(=O)O [alisertib]
In short: as §1

[9] = compound: COc1cc2nc(-c3cc(F)ccc3O)nc(N[C@@H]3CNC[C@H]3C(C)(C)O)c2cc1OC
In short: as §1

gefitinib = compound: COc1cc2ncnc(Nc3ccc(F)c(Cl)c3)c2cc1OCCCN1CCOCC1 [gefitinib]
In short: as §1

Measured: log2 fold change

TNNI3K isoform 1 (UniProt Q59H18)
inactive: vemurafenib 0.019 | [1] 0.007 | barasertib -0.028 | [2] 0.014 | volasertib -0.033 | [3] -0.004 | [4] -0.034 | [5] -0.029 | saracatinib -0.006 | sotrastaurin -0.018 | alvocidib 0.001 | Tubastatin A -0.148 | [6] -0.129 | defactinib 0 | [7] 0.056 | encorafenib -0.062 | [8] 0.136 | alisertib 0.014 | [9] 0.009 | gefitinib -0.047

TMEM230 isoform 2 (UniProt Q96A57)
inactive: vemurafenib -0.011 | [1] 0.011 | barasertib 0.091 | [2] 0.115 | volasertib 0.079 | [3] 0.115 | [4] -0.012 | [5] 0.023 | saracatinib 0.033 | sotrastaurin 0.073 | alvocidib -0.051 | Tubastatin A 0.043 | [6] 0.026 | defactinib -0.054 | [7] 0.049 | encorafenib 0.06 | [8] -0.051 | [9] 0.018

TPRG1L (UniProt Q5T0D9)
inactive: vemurafenib 0.044 | [1] 0.031 | [2] 0.004 | volasertib -0.029 | [3] 0.154 | [4] -0.025 | [5] 0.106 | saracatinib 0.043 | sotrastaurin -0.03 | alvocidib -0.076 | Tubastatin A -0.137 | [6] 0.026 | defactinib -0.087 | [7] -0.017 | encorafenib 0 | [8] 0.045 | alisertib 0.059 | [9] -0.003 | gefitinib -0.014

TMX4 (UniProt Q9H1E5)
inactive: vemurafenib 0.072 | barasertib 0.047 | [2] 0.022 | [3] 0.015 | [4] -0.05 | [5] -0.025 | saracatinib 0.012 | sotrastaurin -0.005 | alvocidib 0 | Tubastatin A -0.101 | [6] 0.019 | defactinib -0.051 | [7] -0.074 | encorafenib -0.015 | [8] -0.036 | alisertib -0.057 | gefitinib 0.304

TNIP2 (UniProt Q8NFZ5)
inactive: vemurafenib -0.083 | [1] -0.096 | barasertib 0.074 | [2] 0.114 | volasertib -0.041 | [4] -0.191 | [5] 0 | sotrastaurin 0.104 | alvocidib -0.102 | [6] -0.163 | defactinib 0.049 | encorafenib 0.049 | [8] -0.062 | alisertib -0.181 | [9] -0.036 | gefitinib -0.037

2 neighbouring records from above, for reference:
TMX4 (UniProt Q9H1E5)
inactive: vemurafenib 0.072 | barasertib 0.047 | [2] 0.022 | [3] 0.015 | [4] -0.05 | [5] -0.025 | saracatinib 0.012 | sotrastaurin -0.005 | alvocidib 0 | Tubastatin A -0.101 | [6] 0.019 | defactinib -0.051 | [7] -0.074 | encorafenib -0.015 | [8] -0.036 | alisertib -0.057 | gefitinib 0.304

TNIP2 (UniProt Q8NFZ5)
inactive: vemurafenib -0.083 | [1] -0.096 | barasertib 0.074 | [2] 0.114 | volasertib -0.041 | [4] -0.191 | [5] 0 | sotrastaurin 0.104 | alvocidib -0.102 | [6] -0.163 | defactinib 0.049 | encorafenib 0.049 | [8] -0.062 | alisertib -0.181 | [9] -0.036 | gefitinib -0.037

Continued:

TMOD3 (UniProt Q9NYL9)
inactive: vemurafenib 0.004 | [1] 0.019 | barasertib -0.049 | [2] 0.043 | volasertib 0.01 | [3] -0.042 | [4] 0.004 | [5] 0.017 | saracatinib 0.012 | sotrastaurin 0.016 | alvocidib -0.035 | Tubastatin A 0.031 | [6] 0.01 | defactinib -0.019 | [7] 0.057 | encorafenib 0.029 | [8] -0.122 | alisertib 0.023 | [9] -0.003 | gefitinib 0.021

TMEM35B (UniProt Q8NCS4)
inactive: vemurafenib 0.158 | [1] 0.184 | volasertib -0.132 | [3] 0.058 | sotrastaurin -0.004 | Tubastatin A 0.103 | [6] 0.035 | defactinib -0.167 | [9] -0.218

TMEM94 isoform 2 (UniProt Q12767)
inactive: vemurafenib -0.013 | [1] -0.021 | barasertib 0.292 | [2] -0.011 | volasertib 0.028 | [3] -0.099 | saracatinib 0.09 | sotrastaurin -0.059 | Tubastatin A -0.09 | [6] -0.022 | defactinib 0.059 | [7] -0.088 | encorafenib 0.06 | [8] -0.028 | [9] 0.076

TPCN1 isoform 3 (UniProt Q9ULQ1)
inactive: vemurafenib -0.055 | [1] -0.04 | barasertib 0.063 | [2] 0.033 | volasertib 0.015 | [3] -0.017 | [4] -0.12 | [5] 0.012 | sotrastaurin 0.065 | alvocidib -0.057 | Tubastatin A 0.061 | [6] 0.072 | defactinib 0.031 | encorafenib -0.01 | [8] -0.027 | [9] -0.025

TMEM9 (UniProt Q9P0T7)
inactive: vemurafenib -0.016 | [1] 0.033 | barasertib 0.008 | volasertib 0.058 | [3] 0.058 | [4] 0.035 | [5] 0.018 | saracatinib -0.072 | sotrastaurin -0.005 | alvocidib -0.02 | Tubastatin A 0.022 | [6] -0.102 | defactinib -0.01 | [7] 0.051 | alisertib -0.088 | [9] 0.042 | gefitinib -0.034

TNIK (UniProt C9J338)
inactive: vemurafenib 0.151 | [1] 0.064 | barasertib 0.028 | [2] 0.171 | volasertib -0.011 | [4] -0.51 | [5] 0.341 | saracatinib 0.033 | sotrastaurin -0.026 | alvocidib -0.155 | [6] -0.211 | defactinib -0.014 | [7] 0.306 | encorafenib -0.012 | [8] 0.005 | [9] 0.076

TOM1 (UniProt O60784)
inactive: vemurafenib -0.049 | [1] -0.018 | barasertib -0.018 | [2] -0.037 | volasertib 0.022 | [4] 0.031 | [5] -0.043 | saracatinib 0.058 | alvocidib 0.023 | [6] 0.149 | defactinib -0.074 | [7] 0.007 | encorafenib -0.01 | [8] -0.099 | [9] -0.01
